In article doi:10.1101/2022.09.13.507797 (bioRxiv, 2022):

Tests used:
[1] = molecular target: quail factor H (quail (Coturnix japonica)); assay: ELISA
[2] = molecular target: quail factor H (quail (Coturnix japonica)); assay: SPR

B1: histidine-tagged CspZB31 (natural protein, Borrelia burgdorferi strain B31)
chain: RLNQRNINELKIFVEKAKYYSIKLDAIYNECTGAYNDIMTYSEGTFSDQSKVNQAISIFKKDNKIVNKFKELEKIIEEYKPMFLSKLIDDFAIELDQAVDNDVSNARHVADSYKKLRKSVVLAYIESFDVISSKFVDSKFVEASKKFVNKAKEFVEENDLIALECIVKTIGDMVNDREINSRSRYNNFYKKEADFLGAAVELEGAYKAIKQTLL
binding [1]: binds

B2: CspZ from B. burgdorferi B31 (CspZB31), untagged recombinant protein (natural protein, Borrelia burgdorferi strain B31)
chain: B1 chain
binding [2]: binds

Results are given in words; binding and its absence hold for the method and conditions named. A result given as binding can be weak or reduced; the word gives no strength. Tags and fused reporters may be left off the sequences shown.
